This is an account of results in publication PMC12120661, “Synthesis and Biological Evaluation of 4‑(4-Nitrophenyl)‑1H‑1,2,3-triazole Derivatives as Antitrypanosomal Agents” (ACS Omega, 2025).

One may read the IC50 as the concentration at which inhibition is half-maximal.

Structures are written as SMILES.

The assay deals with MRC-5SV2 (human lung fibroblast) cells. Kind of assay: Preliminary cytotoxicity assay, resazurin. The format is cell-based. The note with it: read-out: Reference validation IC50 (MRC-5). How it is done: MRC-5SV2 cell cytotoxicity was assessed following the methodology outlined in earlier literature. Briefly, cells at a concentration of 1.5 × 10^5 cells/mL were cultured with compound dilutions at 37 °C and 5% CO2. Cell growth was compared to untreated-control wells (100% cell growth) and medium-control wells (0% cell growth). After 3 days of incubation, cell viability was fluorometrically assessed following the addition of 50-μL resazurin per well. Fluorescence was measured after 4 h at 37 °C (λex 550 nm, λem 590 nm). The results were expressed as the percentage reduction in cell growth/viability compared to control wells, and an IC50 value was determined.
(Resazurin is reduced to fluorescent resorufin, in cell work by metabolically active cells.)

In the case of `CC/C(=C(\c1ccccc1)c1ccc(OCCN(C)C)cc1)c1ccccc1` [tamoxifen, reference compound], the IC50 worked out at 11.4 µM.
